Assay results taken from the supplement of paper PMC9233669.
Variants at the floor of the assay are shown more often than the library holds them.

What was measured:
biotinyl-Phe-oxazolone = test: self-aminoacylation, catalytic enhancement (BFO) (fold over background); higher = more active; k-Seq, kA / k0A0; sequences stand for … in GGGAAUGGAUCCACAUCUACGAAUUC…UUCACUGCAGACUUGACGAAGCUG
Procedure, shortened: (§1)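 The uncatalyzed rate is the low-activity peak of a bimodal Gaussian fit, and catalytic enhancement is median kA divided by it. The kA values came from pseudo-first-order fits, with 1000 bootstraps, of per-sequence fraction reacted measured by streptavidin capture, triplicate qPCR and Illumina sequencing. Mutagenized RNA pools with a 21-nt variable region (0.43 μM) were reacted with each biotinyl-aminoacyl-oxazolone at 2–1250 μM in 50 μL HEPES/NaCl/KCl/MgCl2/CaCl2 buffer with 5% acetonitrile, pH 6.9–7.0, for 90 minutes at room temperature.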

biotinyl-Val-oxazolone = test: self-aminoacylation, catalytic enhancement (BVO) (fold over background); higher = more active; k-Seq, kA / k0A0; sequences stand for … in GGGAAUGGAUCCACAUCUACGAAUUC…UUCACUGCAGACUUGACGAAGCUG
Procedure, shortened: as §1

biotinyl-Trp-oxazolone = test: self-aminoacylation, catalytic enhancement (BWO) (fold over background); higher = more active; k-Seq, kA / k0A0; sequences stand for … in GGGAAUGGAUCCACAUCUACGAAUUC…UUCACUGCAGACUUGACGAAGCUG
Procedure, shortened: as §1

biotinyl-Ile-oxazolone = test: self-aminoacylation, catalytic enhancement (BIO) (fold over background); higher = more active; k-Seq, kA / k0A0; sequences stand for … in GGGAAUGGAUCCACAUCUACGAAUUC…UUCACUGCAGACUUGACGAAGCUG
Procedure, shortened: as §1

biotinyl-Met-oxazolone = test: self-aminoacylation, catalytic enhancement (BMO) (fold over background); higher = more active; k-Seq, kA / k0A0; sequences stand for … in GGGAAUGGAUCCACAUCUACGAAUUC…UUCACUGCAGACUUGACGAAGCUG
Procedure, shortened: as §1

biotinyl-Leu-oxazolone = test: self-aminoacylation, catalytic enhancement (BLO) (fold over background); higher = more active; k-Seq, kA / k0A0; sequences stand for … in GGGAAUGGAUCCACAUCUACGAAUUC…UUCACUGCAGACUUGACGAAGCUG
Procedure, shortened: as §1

| Sequence | self-aminoacylation (biotinyl-Phe-oxazolone) | self-aminoacylation (biotinyl-Val-oxazolone) | self-aminoacylation (biotinyl-Trp-oxazolone) | self-aminoacylation (biotinyl-Ile-oxazolone) | self-aminoacylation (biotinyl-Met-oxazolone) | self-aminoacylation (biotinyl-Leu-oxazolone) |
| --- | --- | --- | --- | --- | --- | --- |
| AAAUUUGAUAAUAGUCGCAAG [Fam3.1 aminoacylation ribozyme variant] | 1.83 | 1.47 | 1.42 | 1.68 | 1.67 | 1.48 |
| AAAUUUGCUAAUAAUCGCAAG [Fam3.1 aminoacylation ribozyme variant] | 1.65 | 1.47 | 1.43 | 1.73 | 1.33 | 1.09 |
| AAGUAUGCUAAUAGUCGCACG [Fam3.1 aminoacylation ribozyme variant] | 1.72 | 1.09 |  | 1.22 | 0.989 | 1.5 |
| AAGUAUGCUAAUAGUCGCCAG [Fam3.1 aminoacylation ribozyme variant] | 1.52 | 1.06 |  | 1.57 | 1.19 | 1.16 |
| AAGUGUGCUAAUAGUCGCGAG [Fam3.1 aminoacylation ribozyme variant] | 1.5 | 1.48 |  | 1.59 | 1.18 |  |
| AAGUUAGCUAAUCGUCGCAAG [Fam3.1 aminoacylation ribozyme variant] | 1.46 | 1.22 |  | 1.49 | 1.08 | 1.47 |
| AAGUUGGCUAAUAGUCACAAG [Fam3.1 aminoacylation ribozyme variant] | 1.91 | 1.33 |  | 1.66 | 1.36 | 1.38 |
| AUUACCCUGGUCCUCGAGGGA [Fam2.1 aminoacylation ribozyme variant] | 0.556 |  |  | 1.48 | 1.39 | 1.64 |
| AUUACUCUGGUCAUCGAGGGA [Fam2.1 aminoacylation ribozyme variant] | 1.15 | 1.35 |  | 1.52 |  | 1.56 |
| AUUACUCUGGUCAUCGAGUGG [Fam2.1 aminoacylation ribozyme variant] | 1.75 | 1.47 | 1.16 | 1.71 |  |  |
| AUUCAGCUAGGUCAUCGGAUG [Fam2.2 aminoacylation ribozyme variant] |  | 0.707 | 0.809 | 0.772 | 0.528 | 0.746 |
| AUUCCCCUGGUCAUGGAGUGA [Fam2.1 aminoacylation ribozyme variant] |  | 3.12 | 4.27 | 2.92 | 3.85 | 3.99 |
| AUUCCGCUGGUCAUCGAGUGA [Fam2.1 aminoacylation ribozyme variant] |  | 3.7 | 8.05 | 3.34 | 6.08 | 6.79 |
| AUUCGCCUAGGUCAUCGGUUG [Fam2.2 aminoacylation ribozyme variant] |  | 1.21 | 1.27 | 1.17 | 1.29 | 1.24 |
| CAACACUUCAAGAAAUCGGUC [Fam1B.1 aminoacylation ribozyme variant] |  | 0.871 | 5.88 | 0.956 | 1.05 | 0.914 |
| CAACACUUCAAGCAAUCGGAC [Fam1B.1 aminoacylation ribozyme variant] |  | 0.966 | 0.815 | 1.16 | 0.775 | 0.957 |
| CAACUUUAAACAAUCGGUCUG [Fam1A.1 aminoacylation ribozyme variant] |  | 0.937 | 1.52 | 1.12 | 0.89 | 0.824 |
| CAGUUUGCUAAGAGUCGCAAG [Fam3.1 aminoacylation ribozyme variant] |  | 1.06 | 1.07 | 1.07 | 1.35 | 1.09 |
| CAGUUUGCUAAUAGUCGCAAC [Fam3.1 aminoacylation ribozyme variant] |  | 1.25 | 0.966 | 1.33 | 1.19 | 1.28 |
| CAGUUUUCUAAUAGUCGCAAG [Fam3.1 aminoacylation ribozyme variant] |  | 1.1 | 1.38 | 1.54 | 1.22 | 0.98 |
| CCAACCUUCAAGCAAUCGGUC [Fam1B.1 aminoacylation ribozyme variant] |  | 1.41 | 15.3 | 1.28 | 1.37 | 1.6 |
| CCACACUUCAAGCACUGGGUC [Fam1B.1 aminoacylation ribozyme variant] |  | 1.1 | 1.03 | 0.807 | 0.66 | 0.971 |
| CCACACUUCAAGCGAUCGGAC [Fam1B.1 aminoacylation ribozyme variant] |  | 1.27 | 1.36 | 1.22 | 1.33 | 1.26 |
| CCACACUUCAAGCUAUCGCUC [Fam1B.1 aminoacylation ribozyme variant] |  | 1.93 | 1.28 | 1.8 | 1.51 | 1.3 |
| CCACACUUCACGCAUUCGGUC [Fam1B.1 aminoacylation ribozyme variant] |  | 1.96 | 1.49 | 1.48 | 1.5 | 1.62 |
| CCACGCAUCAAGCAAUCGGUC [Fam1B.1 aminoacylation ribozyme variant] |  | 1.21 | 1.89 | 0.867 | 0.671 | 0.751 |
| CCAGACUUCAAGCAAUCGGUC [Fam1B.1 aminoacylation ribozyme variant] |  | 1.54 | 26 | 1.45 | 1.42 | 2.04 |
